Laboratory results published in patent US20260365655A1, “NEW USE OF JANUS KINASE (JAK)-DEGRADING AGENT BASED ON PROTEOLYSIS TARGETING CHIMERA (PROTAC)” (SHANGHAI SKIN DISEASE HOSPITAL, priority 2022, published 2026).

System: mouse ear eczema model (spleen)
Test: Mouse ear eczema model: body weight, spleen weight and spleen index
Assay type: in vivo, BALB/c mice
Conditions: group mean; day 11
From the text: (1) Preparation method of a JAK-PROTAC cream: the same as in Example 1.
(2) Positive therapeutic drug: a 0.050% dexamethasone acetate cream (manufacturer: Shanghai Skin Disease Hospital).
(3) Blank matrix: a matrix component produced after the active ingredient JAK-PROTAC was removed from the cream.
(4) Molding agent: solution of calcipotriol in ethanol (manufacturer: MACKLIN).
(1) The mice were randomly divided into a blank control group (6 mice) (Control), a model group (6 mice) (Model), a positive drug group (6 mice) (Positive), a Compound 1-treating group (0.15% JAK-PROTAC cream 1 for external use) (6 mice) (Treat 1), and a Compound 2-treating group (0.15% JAK-PROTAC cream 2 for external use) (6 mice) (Treat 2).
(2) Molding was conducted in the following manner: […]
After the mice were sacrificed, a spleen tissue was collected, dried with a filter paper to remove blood stains on a surface, and weighed for a wet weight. A spleen index was calculated as follows: spleen index=10,000×spleen weight (g)/body weight (g).
(2) A body weight and thicknesses of two ears of each mouse were recorded daily.
(3) After the experiment was completed, a spleen index of each mouse was calculated. […]

SMILES	Body weight, mean value
N#CC[C@H](C1CCCC1)n1cc(-c2nc(Nc3ccc(C(=O)NCCCCNc4cccc5c4C(=O)N(C4CCC(=O)NC4=O)C5=O)cc3)nc3[nH]ccc23)cn1 (some centres unmarked) [Compound 1]	20.7667 g
CCS(=O)(=O)N1CC(CC#N)(n2cc(-c3nc(Nc4ccc(C(=O)NCCCCNc5cccc6c5C(=O)N(C5CCC(=O)NC5=O)C6=O)cc4)nc4[nH]ccc34)cn2)C1 (centres unmarked) [Compound 2]	19.7333 g
